Data as given in PubChem BioAssay AID504764 (Drosophila RNAi Screening Center, 2011)
Screen: 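Genome-wide screen for regulators of Notch-driven gene expression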 (primary screen). Cell system: Drosophila Kc167 cells. Reagents: long dsRNA against Drosophila genes. Time to read-out: about 5 days (4 days dsRNA, then 24 h after transfection). Challenge: transfection of constitutively active membrane-tethered Notch lacking the extracellular domain, read 24 h later. Detection: 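Firefly luciferase from an E(spl)m3 reporter with active Notch, plus control-promoter and uninduced reporter wells for normalisation; unnormalised counts, duplicate wells a and b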. Direction: induced reporter light, run 1, well a and induced reporter light, run 1, well b: higher = more light from the Notch target reporter with active Notch; control promoter light, run 1, well a and control promoter light, run 1, well b: higher = more light from the viral control promoter (cell number, transfection, viability); uninduced reporter light, run 1, well a: higher = more light from the Notch target reporter without active Notch. Rule for the call: 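Hit if the duplicate-averaged log2 ratio of induced to control-promoter light gives a plate-wise z beyond ±2, or induced to uninduced beyond ±1.8; weak-control or discordant-duplicate wells dropped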. Calls: active = modifier hit (raised or lowered Notch signal); inactive = not a hit.
The screen tested about 22,000 reagents; this is a random part of those with a known target gene and a result. In the full data, 403 (1.9%) are marked active. 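Unnormalised raw counts per well; ratio z-scores behind the hit calls and whether each hit raises or lowers signal are not deposited.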 The numbers tell different reagents against one gene apart. Names joined by + are all predicted targets of the reagent. Not stated in the record: the amount of reagent.

target	reagent no.	induced reporter light, run 1, well a	induced reporter light, run 1, well b	control promoter light, run 1, well a	control promoter light, run 1, well b	uninduced reporter light, run 1, well a	activity call
CG12605	1	1.17e5	97960	1.43e5	1.23e5	6070	inactive
side-IV + CG17025 (retired record)	1	2.50e5	2.56e5	2.30e5	2.94e5	18050	inactive
CHOp24	1	2.38e5	2.90e5	2.75e5	2.73e5	13120	inactive
CG5664	1	1.61e5	1.31e5	2.22e5	2.22e5	12680	inactive
CG6873	1	92210	1.13e5	1.17e5	1.33e5	9920	inactive
CG14650	1	1.38e5	1.35e5	1.14e5	1.16e5	9735	inactive
DIP-beta (Dpr-interacting protein beta)	1	2.55e5	2.03e5	2.64e5	3.21e5	14705	inactive
DIP-beta (Dpr-interacting protein beta)	2	73645	79070	60845	1.12e5	10470	inactive
DIP-beta (Dpr-interacting protein beta)	3	90095	79115	99155	1.12e5	10035	inactive
DIP-beta (Dpr-interacting protein beta)	4	1.14e5	86725	1.03e5	1.18e5	11885	inactive
REPTOR (Repressed by TOR)	1	1.25e5	1.46e5	94345	96785	10940	active
dor (deep orange)	1	2.26e5	2.29e5	2.73e5	2.65e5	12265	inactive
CG13359	1	94750	92970	1.71e5	1.44e5	6945	inactive
ema (endosomal maturation defective)	1	2.46e5	2.57e5	2.29e5	2.29e5	17945	inactive
beta4GalNAcTB (beta1,4-N-acetylgalactosaminyltransferase B)	1	1.75e5	1.88e5	2.25e5	2.38e5	18315	inactive
RpS20 (Ribosomal protein S20)	1	29135	25960	35310	37085	2145	inactive
CG7856	1	1.63e5	1.20e5	1.45e5	1.40e5	9990	inactive
CG6878	1	87545	69740	1.18e5	88820	6420	inactive
CG31550	1	72015	74400	60135	43680	7385	inactive
CG31550	2	1.35e5	1.36e5	89595	76450	9380	inactive
CG14292	1	2.31e5	2.08e5	2.58e5	2.58e5	17430	inactive
CG17107	1	2.19e5	2.47e5	1.47e5	1.52e5	27565	inactive
CG13858 (retired record)	1	1.60e5	1.31e5	1.68e5	1.73e5	10880	inactive
CG13858 (retired record)	2	1.39e5	1.66e5	1.58e5	1.55e5	11385	inactive
CG13858 (retired record)	3	1.98e5	1.59e5	1.72e5	2.08e5	12320	inactive
CG13858 (retired record)	4	1.66e5	1.48e5	2.09e5	1.74e5	10765	inactive
PolD2 (DNA polymerase delta subunit 2)	1	72940	80105	1.36e5	1.85e5	5128	inactive
CG9394	1	37820	35740	48815	35715	2155	inactive
CG10348	1	50190	39980	42555	47465	2525	inactive
CG10348	2						inactive
dati (datilografo)	1	1.58e5	1.64e5	2.18e5	2.15e5	12150	inactive
dati (datilografo)	2	85170	1.02e5	1.31e5	1.39e5	6500	inactive
Or9a (Odorant receptor 9a)	1	1.25e5	97745	1.74e5	2.00e5	7365	inactive
CG4360	1	2.01e5	1.77e5	2.31e5	2.30e5	14095	inactive
CG12661	1	1.64e5	1.60e5	2.93e5	2.58e5	12085	inactive
Dlish (Dachs ligand with SH3s)	1	1.28e5	89475	92260	1.57e5	11160	inactive
CG9344	1	41700	30600	24175	25615	1900	inactive
Pkg21D (Protein kinase, cGMP-dependent at 21D)	1	2.19e5	2.20e5	1.88e5	2.10e5	14925	inactive
l(3)72Dn (lethal (3) 72Dn)	1	80050	93685	57390	62545	6030	inactive
Bap55 (Brahma associated protein 55kD)	1	43225	50255	1.16e5	1.21e5	5975	active
mino (minotaur)	1	35615	47495	49485	51145	3185	inactive
CG14135	1	2.66e5	1.99e5	3.04e5	3.03e5	14815	inactive
L2HGDH (L-2-hydroxyglutarate dehydrogenase)	1	2.38e5	2.65e5	2.81e5	2.82e5	20585	inactive
Brca2 (BRCA2, DNA repair associated)	1	1.97e5	1.73e5	2.12e5	2.12e5	14925	inactive
Brca2 (BRCA2, DNA repair associated)	2	1.84e5	1.48e5	1.40e5	1.45e5	13130	inactive
CG17824 (retired record)	1	2.00e5	1.77e5	2.37e5	1.71e5	7960	inactive
CG7841	1	1.91e5	1.37e5	2.51e5	2.41e5	11355	inactive
CG2861	1	1.08e5	1.11e5	1.34e5	1.49e5	7330	active
ben (bendless)	1	1.27e5	1.24e5	3.04e5	2.96e5	6075	active
ben (bendless)	2	1.08e5	88095	1.32e5	1.26e5	10450	inactive
